## Screening data

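Vaccinia-infected cells with a two-color viral stage reporter; Venus fluorescence read on a plate reader; the cell line is not named here; timing not stated here.
The test concentration is not given here.
Percent change in Venus reporter signal; lower (more negative) values mean stronger inhibition of that viral stage.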

Values are in %.
How 0% and 100% were set is not given here.
Common to all entries: measured here: Venus reporter, other viral stage.
This is a side read-out of the assay, for part of the compounds, not drawn at random.

SMILES | activity change (Venus) (%)
C[C@@H]1CCCCO[C@@H](CN(C)Cc2ccc(Cl)c(Cl)c2)[C@H](C)CN([C@H](C)CO)C(=O)c2cc(NS(C)(=O)=O)ccc2O1 | -57.37
C[C@H]1CN([C@@H](C)CO)S(=O)(=O)c2ccc(C#Cc3ccc(F)cc3)cc2O[C@@H]1CN(C)C(=O)NC1CCCC1 | -40.2
C[C@@H]1CCCCO[C@H](CN(C)CC2CCCCC2)[C@@H](C)CN([C@H](C)CO)C(=O)c2cc(NC(=O)Nc3ccccc3)ccc2O1 | -26.74
C[C@@H]1CN([C@@H](C)CO)C(=O)c2cc(NC(=O)Nc3ccccc3)ccc2O[C@@H](C)CCCCO[C@H]1CN(C)CC1CCCCC1 | -32.91
CN1C(=O)c2cc(NC(=O)c3ccc(F)cc3)ccc2OC[C@H]2O[C@@H](CC(=O)NCC3CCCCC3)CC[C@H]21 | -33.95
C[C@@H]1CN([C@H](C)CO)C(=O)Cc2cc(NS(C)(=O)=O)ccc2O[C@@H]1CN(C)Cc1ccc(-c2ccccc2)cc1 | -42.92
C[C@@H]1CN([C@@H](C)CO)S(=O)(=O)c2ccc(/C=C/c3ccccc3)cc2O[C@H]1CN(C)Cc1ccc(C(=O)O)cc1 | -37.09
C[C@@H]1CN([C@H](C)CO)C(=O)c2cc(NS(=O)(=O)c3ccc(Cl)cc3)ccc2O[C@@H]1CN(C)Cc1ccc(-c2ccccc2)cc1 | -56.03
O=C(C[C@H]1CC[C@H]2[C@@H](COC[C@@H](O)CN2S(=O)(=O)c2ccc(Cl)cc2)O1)NCc1ccc(Cl)c(Cl)c1 | -60.31
COc1ccccc1S(=O)(=O)N1CC[C@@H]2[C@H]1c1cc(-c3ccccc3)ccc1N[C@@H]2CO | -59.15
O=C(c1cccc(F)c1)N1CC(=O)N2[C@H](C1)[C@@H](c1ccc(-c3ccccc3F)cc1)[C@@H]2CO | -41.95
COc1ccc(S(=O)(=O)N(C)C[C@@H]2OCc3ccccc3-c3ccccc3C(=O)N([C@@H](C)CO)C[C@@H]2C)cc1 | -14.9
Cc1ccc(S(=O)(=O)N(C)C[C@H]2Oc3c(NC(=O)Nc4ccc(F)cc4)cccc3C(=O)N([C@@H](C)CO)C[C@H]2C)cc1 | -56.3
CCCC#Cc1ccc([C@H]2[C@H](CO)N3CCCCN(S(=O)(=O)Cc4ccccc4)C[C@@H]23)cc1 | -67.26
CC(C)CC#Cc1ccc2c(c1)O[C@H](CN(C)C(=O)CN(C)C)[C@@H](C)CN([C@H](C)CO)S2(=O)=O | -26.46
Cc1ccc(S(=O)(=O)Nc2ccc3c(c2)C(=O)N([C@@H](C)CO)C[C@H](C)[C@@H](CN(C)Cc2ccc4c(c2)OCO4)OCCCC[C@H](C)O3)cc1 | -67.79
C[C@H](CO)N1C[C@H](C)[C@H](CN(C)Cc2ccc(C(F)(F)F)cc2)OCCCC[C@H](C)Oc2ccc(NC(=O)Nc3ccc(F)cc3)cc2C1=O | -37.8
C[C@@H]1CN([C@@H](C)CO)C(=O)Cc2cc(NC(=O)Nc3ccc(F)cc3)ccc2O[C@H]1CN(C)Cc1ccccc1 | -35.7
C[C@H]1CCCCO[C@@H](CN(C)Cc2ccc(C(F)(F)F)cc2)[C@@H](C)CN([C@@H](C)CO)C(=O)c2cc(NC(=O)c3ccncc3)ccc2O1 | -58.25
C[C@H]1CN([C@@H](C)CO)S(=O)(=O)c2ccc(C#Cc3cccc(F)c3)cc2O[C@H]1CN(C)S(=O)(=O)c1cn(C)cn1 | -68.54
C[C@@H]1CN([C@@H](C)CO)C(=O)Cc2cc(NC(=O)Cc3ccccc3)ccc2O[C@H]1CN(C)Cc1ccc2c(c1)OCO2 | -30.19
C[C@@H]1CN([C@@H](C)CO)S(=O)(=O)c2ccc(C#Cc3ccncc3)cc2O[C@@H]1CN(C)C(=O)C1CCCCC1 | -45.62
COc1ccc(NC(=O)N2CCCCN3[C@@H](CO)[C@@H](c4ccc(-c5ccccc5F)cc4)[C@@H]3C2)cc1 | -85.13
C[C@@H]1CCCCO[C@H](CN(C)Cc2ccc(C(F)(F)F)cc2)[C@H](C)CN([C@@H](C)CO)C(=O)c2cc(NC(=O)CCCN(C)C)ccc2O1 | -85.7
CC(C)NC(=O)N1CCCCN2[C@H](C1)[C@H](c1ccc(C#Cc3ccccc3)cc1)[C@@H]2CO | -41.9
COc1cccc(NC(=O)N(C)C[C@H]2Oc3cc(-c4ccccc4F)ccc3S(=O)(=O)N([C@@H](C)CO)C[C@H]2C)c1 | -44.4
C[C@H](CO)N1C[C@H](C)[C@@H](CN(C)Cc2ccc(Oc3ccccc3)cc2)Oc2ccc(NS(=O)(=O)c3ccc(Cl)cc3)cc2CC1=O | -41.94
C[C@H](CO)N1C[C@H](C)[C@@H](CN(C)C(=O)NC2CCCCC2)Oc2cc(C#Cc3ccc(F)cc3)ccc2S1(=O)=O | -55.23
C[C@@H]1CN([C@@H](C)CO)C(=O)Cc2cc(NC(=O)Nc3ccc(C(F)(F)F)cc3)ccc2O[C@@H]1CN(C)C(=O)NC1CCCCC1 | -46.91
CO[C@H]1CN(C)C(=O)c2cc(NC(=O)Nc3cccc(Cl)c3)ccc2OC[C@@H](C)NC[C@@H]1C | -25.71
CCCC#Cc1ccc2c(c1)O[C@H](CN(C)Cc1ccc3c(c1)OCO3)[C@@H](C)CN([C@H](C)CO)S2(=O)=O | -39.8
C[C@@H]1CN([C@@H](C)CO)S(=O)(=O)c2ccc(C#Cc3ccc(F)cc3)cc2O[C@@H]1CN(C)C(=O)NC1CCCCC1 | -37.69
CCC(=O)Nc1ccc2c(c1)OC[C@@H](C)N(Cc1ccccc1F)C[C@H](C)[C@H](OC)CN(C)C2=O | -23.51
C[C@H]1CCCCO[C@H](CN(C)Cc2ccc(C(F)(F)F)cc2)[C@@H](C)CN([C@@H](C)CO)C(=O)c2cc(NS(=O)(=O)c3ccccc3)ccc2O1 | -54.02

The last 3 entries again:

* C[C@@H]1CN([C@@H](C)CO)S(=O)(=O)c2ccc(C#Cc3ccc(F)cc3)cc2O[C@@H]1CN(C)C(=O)NC1CCCCC1 : activity change (Venus) -37.69%
* CCC(=O)Nc1ccc2c(c1)OC[C@@H](C)N(Cc1ccccc1F)C[C@H](C)[C@H](OC)CN(C)C2=O : activity change (Venus) -23.51%
* C[C@H]1CCCCO[C@H](CN(C)Cc2ccc(C(F)(F)F)cc2)[C@@H](C)CN([C@@H](C)CO)C(=O)c2cc(NS(=O)(=O)c3ccccc3)ccc2O1 : activity change (Venus) -54.02%

The results are deposited in PubChem (AID1053133; Broad Institute, 2014).